Residue numbers refer to the chain shown, from its start. For part of these data: The comparison behind a weaker result is the experiment's own reference, which may not be listed here. Tags and fusion partners may be left off the protein sequences shown. For part of these data: Construct, isoform or probe ends are uncertain for at least one entry. For part of these data: At least one verdict was read from the data and is not stated in words by the source.

The target of data set [1] is T1, CadC1-107 (DBD) (Escherichia coli) (UniProt P23890).
T1 sequence (looked up): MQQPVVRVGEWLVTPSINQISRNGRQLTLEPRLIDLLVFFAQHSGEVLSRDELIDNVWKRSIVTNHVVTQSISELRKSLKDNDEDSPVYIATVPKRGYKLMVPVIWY
As to the kind of experiment: EMSA. To be noted: value only in figure, EMSA/NMR/ITC: 20 mM BisTris, 150 mM NaCl, pH 6.5, RT (NMR 10% D2O, 298 K; imino spectra 283 K), recombinant protein, residues 1-107, protein details: His6-thioredoxin removed by TEV. In general terms: In EMSA bound probe runs differently from free probe, usually more slowly.

Data set [2] concerns the target T1, CadC1-107 (DBD) (Escherichia coli). Nature of the data set: ITC. To be noted: value only in figure; imino spectra 283 K); recombinant protein; residues 1-107; protein details: His6-thioredoxin removed by TEV.
Data set [3] addresses T2, CadC1-159 R50A (Escherichia coli) (UniProt P23890).
T2 sequence (looked up): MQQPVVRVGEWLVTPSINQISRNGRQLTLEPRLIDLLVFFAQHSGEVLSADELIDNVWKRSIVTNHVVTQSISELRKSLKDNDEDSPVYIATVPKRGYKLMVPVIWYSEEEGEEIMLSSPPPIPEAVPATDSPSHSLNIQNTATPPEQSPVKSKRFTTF
As to the kind of experiment: SPR. The conditions noted are these: binding almost abolished; SPR: 10 mM HEPES pH 7.4, 150 mM NaCl, 3 mM EDTA, 0.05% P20, 25 C; recombinant protein; residues 1-159; protein details: His6-thioredoxin removed by TEV.

Data set [4] addresses T3, CadC1-159 R76A (Escherichia coli) (UniProt P23890).
T3 sequence (looked up): T2 sequence (looked up) with A50R, R76A
Nature of the data set: SPR. To be noted: binding almost abolished; SPR: 10 mM HEPES pH 7.4, 150 mM NaCl, 3 mM EDTA, 0.05% P20, 25 C; recombinant protein; residues 1-159; protein details: His6-thioredoxin removed by TEV.

For data set [5], the target named is T4, CadC1-159 R96A (Escherichia coli) (UniProt P23890).
T4 sequence (looked up): T2 sequence (looked up) with A50R, R96A
As to the kind of experiment: SPR. The conditions noted are these: reduced binding; SPR: 10 mM HEPES pH 7.4, 150 mM NaCl, 3 mM EDTA, 0.05% P20, 25 C; recombinant protein; residues 1-159; protein details: His6-thioredoxin removed by TEV.

“TGATATCAACTTG (double strand) [Cad1C 13-mer]”: in data set [1] (slightly lower affinity than Cad1A/B), the binding result is “binds more weakly”.
With “TTGTAAACATTAAATGTTTATCTTTTCATGATATCAACTTG (double strand) [Cad1 41-mer WT]”, the binding result in data set [2] and in data set [1] was “binds” throughout.
As for “TTGTAAACATTAAATGTTTATCTTTTCATGATATCAACTTG (double strand) [Cad1 41-mer, biotinylated (SPR)]”, the binding result in data set [3], in data set [4] and in data set [5] was “binds more weakly” each time.

(Values after paper PMC5430869, “Structure-function analysis of the DNA-binding domain of a transmembrane transcriptional activator”.)
